Like-named read-outs stand apart in the source and are kept apart here. Some of these results come from one statement about several compounds together.
Legend:
[1] = tested on: Tetranychus urticae (two-spotted spider mite); test: Example B3: Tetranychus urticae, mixed population, feeding/residual contact activity, preventive (bean leaf discs); format: in vivo; settings: concentration of 400 ppm; egg, larval and adult mortality checked 8 days later
[2] = tested on: Frankliniella occidentalis (western flower thrips); test: Example B7: Frankliniella occidentalis on bean leaf discs or bean plants; format: in vivo; settings: concentration of 400 ppm; reduction of treated population, 6 days (leaf discs) or 14 days (plants)
[3] = tested on: Bemisia tabaci (tobacco white fly); test: Example B8: Bemisia tabaci, larvicide, contact/feeding (bean plants); format: in vivo; settings: concentration of 400 ppm; number of emerged adults three weeks later vs non treated
[4] = tested on: Nilaparvata Lugens (brown rice planthopper); test: Example B9: Nilaparvata lugens, larvicide, feeding/contact (rice seedlings); format: in vivo; settings: concentration of 400 ppm; mortality, growth regulation, effects on F1 generation 6-12 days after treatment
[5] = tested on: Aphis craccivora (pea aphid); test: Example B10: Aphis craccivora, mixed population, contact/feeding (pea seedlings sprayed); format: in vivo; settings: concentration of 400 ppm; mortality 6 days after treatment
[6] = tested on: Aphis craccivora (pea aphid); test: Example B11: Aphis craccivora, mixed population, systemic/feeding (pea seedling roots in test solution); format: in vivo; settings: concentration of 400 ppm; mortality 6 days later
[7] = tested on: Aphis grossvpii (cotton aphid); test: Example B12: cotton aphid, mixed population, contact/feeding (pea seedlings sprayed); format: in vivo; settings: concentration of 400 ppm; mortality 6 days after treatment
[8] = tested on: Aphis gossypii (cotton aphid); test: Example B13: Aphis gossypii, mixed population, systemic/feeding (pea seedling roots in test solution); format: in vivo; settings: concentration of 400 ppm; mortality 6 days later
[9] = tested on: Aphis craccivora (ground nut aphid); test: Example B14: translaminar activity against Aphis craccivora (French bean leaves); format: in vivo; settings: concentration of 400 ppm; upper leaf side painted, mortality 5 days later
[10] = tested on: Aonidiella aurantii (red scale); test: Example B15: Aonidiella aurantii on dipped potato tubers; format: in vivo; settings: concentration of 400 ppm; crawlers of next generation 6-8 weeks after application vs non treated
[11] = tested on: Myzus persicae (green peach aphid); settings: concentration of 400 ppm; mortality checked after 6 days
[12] = tested on: Myzus persicae (green peach aphid); test: Example B2: Myzus persicae, mixed population, systemic/feeding activity, curative (pea seedling roots in test solution); settings: concentration of 400 ppm; mortality checked 6 days after introduction
[13] = tested on: Plutella xylostella (diamond back moth); test: Example B5: Plutella xylostella, larvicide, feeding/residual contact activity, preventive (artificial diet MTP); format: in vivo; settings: concentration of 400 ppm; larval mortality, antifeedant and growth regulation after 5 days
[14] = tested on: Diabrotica balteata (corn root worm); test: Example B6: Diabrotica balteata, larvicide, feeding/residual contact activity, preventive (artificial diet MTP); format: in vivo; settings: concentration of 400 ppm; larval mortality, antifeedant and growth regulation after 5 days
[15] = tested on: Thrips tabaci (onion thrips); format: in vivo; settings: concentration of 400 ppm; mortality checked after 6 days
[16] = tested on: Meloidogyne incognita; test: Example B23: Meloidogyne incognita, pouch test, contact (cucumber), gall reduction; format: in vivo; settings: concentration of 400 ppm; gall reduction in root mass 12 days after treatment

Measured: activity

CCOC(=O)OC1=C(c2cc(C)ccc2C)C(=O)NC12CCN(OC)CC2 [Compound A2]
not listed: [13] | [14] | [15] | [16]
over 80%: all other assays above

CCC(=O)OC1=C(c2cc(C)ccc2C)C(=O)NC12CCN(OC)CC2 [Compound A52]
over 80%: [13] | [14] | [11] | [12]

CON1CCC2(CC1)NC(=O)C(c1cc(C)ccc1C)=C2OC(=O)OCC(C)(C)C [Compound A50]
over 80%: [1] | [13] | [8] | [11]

CCOC(=O)OC1=C(c2cc(-c3ccc(F)cc3)cc(F)c2C)C(=O)NC12CCN(OC)CC2 [Compound E1]
over 80%: [1] | [15] | [2] | [4] | [9] | [11]

CCOC(=O)OC1=C(c2cc(-c3ccc(Cl)cc3)ccc2C)C(=O)NC12CCN(OC)CC2 [Compound A34]
over 80%: [15] | [13] | [14] | [4] | [11]

C=CCOC(=O)OC1=C(c2cc(C)ccc2C)C(=O)NC12CCN(OC)CC2 [Compound A5]
not listed: [13] | [14] | [15]
over 80%: all other assays above

CON1CCC2(CC1)NC(=O)C(c1cc(C)ccc1C)=C2OC(=O)OC(C)C [Compound A4]
not listed: [5] | [7] | [9] | [13] | [14] | [15]
over 80%: all other assays above

C#CCOC(=O)OC1=C(c2cc(C)ccc2C)C(=O)NC12CCN(OC)CC2 [Compound A7]
over 80%: [1] | [15] | [13] | [4] | [6] | [8] | [9] | [11] | [12]

CCCOC(=O)OC1=C(c2cc(C)ccc2C)C(=O)NC12CCN(OC)CC2 [Compound A3]
not listed: [5] | [7] | [13] | [14] | [16]
over 80%: all other assays above

CCOC(=O)OC1=C(c2ccc(C3CC3)cc2C)C(=O)NC12CCN(OC)CC2 [Compound A80]
over 80%: [1] | [2] | [3] | [4] | [8] | [16] | [12]

COCOC1=C(c2cc(C)ccc2C)C(=O)NC12CCN(OC)CC2 [Compound A15]
over 80%: [1] | [5] | [16] | [11]

CCOC(=O)OC1=C(c2c(C)cc(C)cc2C)C(=O)NC12CCN(OCC)CC2 [Compound A42]
over 80%: [15] | [13] | [2] | [4] | [5] | [6] | [8] | [11] | [12]

C=COC(=O)OC1=C(c2cc(C)ccc2C)C(=O)NC12CCN(OC)CC2 [Compound A6]
over 80%: [1] | [15] | [13] | [6] | [16] | [11]

CCOC(=O)OC1=C(c2c(C)cc(C)cc2C)C(=O)NC12CCN(OC)CC2 [Compound A18]
over 80%: [15] | [4] | [6] | [7] | [8] | [9] | [11] | [12]

COC(=O)OC1=C(c2cc(C)ccc2C)C(=O)NC12CCN(OC)CC2 [Compound A1, Carbonic acid 3-(2,5-dimethyl-phenyl)-8-methoxy-2-oxo-1,8-diaza-spiro[4.5]dec-3-en-4-yl ester methyl ester]
over 80%: [1] | [3] | [4] | [6] | [8] | [10] | [11] | [12]

Reference: US8415369B2, “Spiroheterocyclic pyrrolidine dione derivatives useful as pesticides” (Syngenta Crop Protection LLC, priority 2007, dated 2013)
